Measured values reported in patent US8440837B2, “2-substituted-ethynylthiazole derivatives and uses of same” (H. Lundbeck A/S, priority 2009, dated 2013).
pEC50: −log10 of the molar value. Some entries share one result that the patent states for a list of compounds.

Target: human metabotropic glutamate receptor 5 (hmGluR5) (UniProt P31424)
Assay: Calcium mobilization (FLIPR) assay, positive allosteric modulation of the EC20 glutamate response
Type: cell-based
Conditions: HEK 293 cells, increase in EC20 glutamate response
Method: The cDNA for human metabotropic glutamate receptor 5 (hmGluR5) was a generous gift from S. Nakanishi (Kyoto University, Kyoto, Japan). The […] was stably expressed in a HEK 293 cell line and grown in Dulbecco's Modified Eagle Medium (DMEM) (Invitrogen, Carlsbad, Calif.) with supplements (10% bovine calf serum, 4 mM glutamine, 100 units/mL penicillin, 100 μg/mL streptomycin and […]) at 37° C., 5% CO2. Twenty-four hours prior to assay, cells were seeded into 384-well black wall microtiter plates coated with poly-D-lysine. […] Basal fluorescence is monitored in a fluorometric imaging plate reader (FLIPR) (Molecular Devices, Sunnyvale, Calif.) with an excitation wavelength of 488 nm and an emission range of 500 to 560 nm. Laser excitation energy was adjusted so that basal fluorescence readings were approximately 10,000 relative fluorescent units. Cells were stimulated with an EC20 or an EC80 concentration of glutamate in the presence of a compound to be tested, both diluted in assay buffer, and relative fluorescent units were measured at defined intervals (exposure=0.6 sec) over a 3 min period at room temperature. Basal readings derived from negative controls were subtracted from all samples. Maximum change in fluorescence was calculated for each well. […]

| pEC50 | Structure (SMILES) |
| --- | --- |
| < 5.00 | O=C(c1cnc(C#Cc2cccc(F)c2)s1)N1CCOCC1 [Example 22, [2-(3-Fluoro-phenylethynyl)-thiazol-5-yl]-morpholin-4-yl-methanone] |
| < 5.00 | O=C(c1cnc(C#Cc2ccccc2)s1)N1CCOCC1 [Example 7, Morpholin-4-yl-(2-phenylethynyl-thiazol-5-yl)-methanone] |
